The other results are listed elsewhere or left out.

Protein sequences, listed by entry. Tags and fused reporters are not part of them. Lines headed by an entry give the natural chain unless they say otherwise; changes in a name come on top.
UniProt Q9UET6: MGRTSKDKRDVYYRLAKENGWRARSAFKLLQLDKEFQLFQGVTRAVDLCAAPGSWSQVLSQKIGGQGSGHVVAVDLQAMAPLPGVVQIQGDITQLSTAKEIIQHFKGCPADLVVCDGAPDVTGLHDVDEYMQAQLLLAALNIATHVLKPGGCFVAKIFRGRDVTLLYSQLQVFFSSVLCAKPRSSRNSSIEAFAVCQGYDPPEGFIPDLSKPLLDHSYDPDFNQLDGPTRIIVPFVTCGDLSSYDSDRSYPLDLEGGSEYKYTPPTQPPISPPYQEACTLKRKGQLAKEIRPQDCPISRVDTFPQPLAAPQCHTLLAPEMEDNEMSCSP
UniProt Q7Z7M9: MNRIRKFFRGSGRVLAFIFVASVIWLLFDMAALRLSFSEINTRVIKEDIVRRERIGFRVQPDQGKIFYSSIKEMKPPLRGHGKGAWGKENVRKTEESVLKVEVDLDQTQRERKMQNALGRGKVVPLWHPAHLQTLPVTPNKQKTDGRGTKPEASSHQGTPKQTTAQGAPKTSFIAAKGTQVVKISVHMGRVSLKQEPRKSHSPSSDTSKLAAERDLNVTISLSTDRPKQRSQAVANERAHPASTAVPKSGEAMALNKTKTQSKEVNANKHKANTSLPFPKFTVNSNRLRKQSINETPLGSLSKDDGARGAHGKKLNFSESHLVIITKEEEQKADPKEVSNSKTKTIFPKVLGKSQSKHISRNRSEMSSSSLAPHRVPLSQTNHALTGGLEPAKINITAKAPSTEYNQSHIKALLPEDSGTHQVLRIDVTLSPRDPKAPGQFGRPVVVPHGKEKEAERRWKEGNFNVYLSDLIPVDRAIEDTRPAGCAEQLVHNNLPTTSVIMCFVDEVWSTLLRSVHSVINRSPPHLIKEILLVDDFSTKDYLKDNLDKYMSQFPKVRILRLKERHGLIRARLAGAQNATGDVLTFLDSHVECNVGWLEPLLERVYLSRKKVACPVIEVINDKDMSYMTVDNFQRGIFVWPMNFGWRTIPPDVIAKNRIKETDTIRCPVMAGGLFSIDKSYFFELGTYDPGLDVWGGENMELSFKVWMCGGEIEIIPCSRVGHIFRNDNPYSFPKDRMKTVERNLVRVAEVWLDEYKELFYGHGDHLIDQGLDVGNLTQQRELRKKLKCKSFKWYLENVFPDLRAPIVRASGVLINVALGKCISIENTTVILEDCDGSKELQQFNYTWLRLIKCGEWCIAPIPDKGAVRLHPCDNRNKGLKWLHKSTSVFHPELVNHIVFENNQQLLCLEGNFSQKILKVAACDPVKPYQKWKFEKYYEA
UniProt P04066: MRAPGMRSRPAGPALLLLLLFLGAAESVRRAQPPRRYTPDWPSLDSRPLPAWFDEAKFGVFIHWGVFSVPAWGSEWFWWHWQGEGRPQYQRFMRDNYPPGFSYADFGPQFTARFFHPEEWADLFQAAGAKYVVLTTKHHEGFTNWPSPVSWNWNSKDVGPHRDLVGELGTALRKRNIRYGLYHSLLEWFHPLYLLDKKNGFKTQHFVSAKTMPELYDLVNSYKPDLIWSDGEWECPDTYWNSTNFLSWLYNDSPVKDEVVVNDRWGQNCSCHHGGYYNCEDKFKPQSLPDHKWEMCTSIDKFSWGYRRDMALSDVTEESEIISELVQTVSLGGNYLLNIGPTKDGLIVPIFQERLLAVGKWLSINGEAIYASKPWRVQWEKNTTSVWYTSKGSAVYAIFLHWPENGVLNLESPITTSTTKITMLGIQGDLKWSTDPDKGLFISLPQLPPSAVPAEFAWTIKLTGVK
UniProt Q5SZK8: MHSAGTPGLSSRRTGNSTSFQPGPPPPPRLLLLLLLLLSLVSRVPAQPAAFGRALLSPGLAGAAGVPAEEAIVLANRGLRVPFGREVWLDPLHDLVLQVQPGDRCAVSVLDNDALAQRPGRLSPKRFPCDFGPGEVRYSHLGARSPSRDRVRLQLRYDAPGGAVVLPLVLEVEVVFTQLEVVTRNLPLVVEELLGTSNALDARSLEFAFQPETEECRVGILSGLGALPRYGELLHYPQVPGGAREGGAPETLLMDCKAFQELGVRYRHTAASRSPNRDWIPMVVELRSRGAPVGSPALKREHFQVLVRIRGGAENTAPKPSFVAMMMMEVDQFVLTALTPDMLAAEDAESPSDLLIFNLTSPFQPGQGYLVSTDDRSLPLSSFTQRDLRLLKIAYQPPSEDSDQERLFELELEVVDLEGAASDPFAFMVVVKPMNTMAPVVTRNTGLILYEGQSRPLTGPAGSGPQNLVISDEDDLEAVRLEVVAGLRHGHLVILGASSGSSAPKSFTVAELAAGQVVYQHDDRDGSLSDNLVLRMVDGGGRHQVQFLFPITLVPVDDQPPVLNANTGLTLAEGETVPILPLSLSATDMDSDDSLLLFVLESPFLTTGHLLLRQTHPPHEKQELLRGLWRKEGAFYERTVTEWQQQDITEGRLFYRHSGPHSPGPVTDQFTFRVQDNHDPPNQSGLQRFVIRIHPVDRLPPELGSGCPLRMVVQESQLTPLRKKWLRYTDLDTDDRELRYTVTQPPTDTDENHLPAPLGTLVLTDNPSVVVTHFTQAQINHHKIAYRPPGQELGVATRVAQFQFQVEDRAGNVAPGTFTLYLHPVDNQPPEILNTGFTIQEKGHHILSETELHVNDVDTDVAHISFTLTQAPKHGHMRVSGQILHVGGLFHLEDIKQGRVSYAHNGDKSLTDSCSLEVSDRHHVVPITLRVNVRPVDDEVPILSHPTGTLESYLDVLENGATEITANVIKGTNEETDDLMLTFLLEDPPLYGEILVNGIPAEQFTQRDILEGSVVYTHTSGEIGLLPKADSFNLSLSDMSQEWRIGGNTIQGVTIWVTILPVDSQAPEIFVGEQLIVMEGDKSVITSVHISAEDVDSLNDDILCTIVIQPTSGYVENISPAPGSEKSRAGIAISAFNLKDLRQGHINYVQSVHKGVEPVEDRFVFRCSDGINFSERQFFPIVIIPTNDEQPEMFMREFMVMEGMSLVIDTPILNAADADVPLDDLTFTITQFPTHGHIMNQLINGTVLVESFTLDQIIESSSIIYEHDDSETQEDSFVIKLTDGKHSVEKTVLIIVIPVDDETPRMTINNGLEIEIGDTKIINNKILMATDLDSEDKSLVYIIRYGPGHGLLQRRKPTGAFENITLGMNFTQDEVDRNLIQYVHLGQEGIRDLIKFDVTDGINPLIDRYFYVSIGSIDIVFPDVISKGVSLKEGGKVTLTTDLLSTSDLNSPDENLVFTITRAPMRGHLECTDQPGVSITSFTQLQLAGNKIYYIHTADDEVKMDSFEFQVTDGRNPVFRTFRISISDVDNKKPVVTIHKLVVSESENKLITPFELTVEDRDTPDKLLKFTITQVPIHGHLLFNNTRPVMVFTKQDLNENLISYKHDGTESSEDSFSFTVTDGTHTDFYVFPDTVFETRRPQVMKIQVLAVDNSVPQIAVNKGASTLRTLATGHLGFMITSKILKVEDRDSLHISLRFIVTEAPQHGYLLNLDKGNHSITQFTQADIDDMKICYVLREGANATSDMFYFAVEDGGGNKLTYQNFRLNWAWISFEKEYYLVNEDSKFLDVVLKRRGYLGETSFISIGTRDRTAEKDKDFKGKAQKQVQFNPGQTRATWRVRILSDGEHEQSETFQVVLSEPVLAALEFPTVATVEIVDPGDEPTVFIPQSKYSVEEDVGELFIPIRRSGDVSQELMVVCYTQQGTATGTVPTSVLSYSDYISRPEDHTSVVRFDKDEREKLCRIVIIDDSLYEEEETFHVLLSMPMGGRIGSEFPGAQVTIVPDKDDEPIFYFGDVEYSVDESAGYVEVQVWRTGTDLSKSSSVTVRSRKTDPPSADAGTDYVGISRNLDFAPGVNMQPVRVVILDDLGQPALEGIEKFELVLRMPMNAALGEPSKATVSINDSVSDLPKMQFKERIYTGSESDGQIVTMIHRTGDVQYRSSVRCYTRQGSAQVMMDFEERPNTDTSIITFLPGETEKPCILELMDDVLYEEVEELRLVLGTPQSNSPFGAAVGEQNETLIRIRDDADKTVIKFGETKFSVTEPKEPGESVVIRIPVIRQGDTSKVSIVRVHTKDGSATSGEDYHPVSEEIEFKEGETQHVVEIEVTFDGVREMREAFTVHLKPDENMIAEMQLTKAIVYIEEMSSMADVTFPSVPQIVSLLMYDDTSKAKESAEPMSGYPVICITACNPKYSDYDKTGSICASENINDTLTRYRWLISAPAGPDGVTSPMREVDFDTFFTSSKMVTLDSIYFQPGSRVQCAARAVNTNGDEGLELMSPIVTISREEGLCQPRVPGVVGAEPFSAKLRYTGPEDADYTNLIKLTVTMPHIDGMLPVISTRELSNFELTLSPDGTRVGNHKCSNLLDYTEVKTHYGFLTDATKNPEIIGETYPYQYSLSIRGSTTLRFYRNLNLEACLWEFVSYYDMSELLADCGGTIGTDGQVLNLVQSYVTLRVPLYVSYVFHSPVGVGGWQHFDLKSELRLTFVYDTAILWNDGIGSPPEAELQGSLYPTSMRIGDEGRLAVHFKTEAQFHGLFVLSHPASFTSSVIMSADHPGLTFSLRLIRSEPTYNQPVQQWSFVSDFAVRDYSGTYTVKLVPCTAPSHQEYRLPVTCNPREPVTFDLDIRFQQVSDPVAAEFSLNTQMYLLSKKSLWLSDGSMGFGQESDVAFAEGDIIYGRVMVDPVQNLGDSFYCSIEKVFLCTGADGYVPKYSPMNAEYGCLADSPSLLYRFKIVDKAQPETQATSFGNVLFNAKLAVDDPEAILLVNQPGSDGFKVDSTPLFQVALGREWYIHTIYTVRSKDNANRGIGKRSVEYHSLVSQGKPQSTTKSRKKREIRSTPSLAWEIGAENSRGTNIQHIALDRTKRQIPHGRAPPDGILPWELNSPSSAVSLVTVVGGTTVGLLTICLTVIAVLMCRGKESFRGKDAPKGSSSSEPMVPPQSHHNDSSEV
UniProt O14772: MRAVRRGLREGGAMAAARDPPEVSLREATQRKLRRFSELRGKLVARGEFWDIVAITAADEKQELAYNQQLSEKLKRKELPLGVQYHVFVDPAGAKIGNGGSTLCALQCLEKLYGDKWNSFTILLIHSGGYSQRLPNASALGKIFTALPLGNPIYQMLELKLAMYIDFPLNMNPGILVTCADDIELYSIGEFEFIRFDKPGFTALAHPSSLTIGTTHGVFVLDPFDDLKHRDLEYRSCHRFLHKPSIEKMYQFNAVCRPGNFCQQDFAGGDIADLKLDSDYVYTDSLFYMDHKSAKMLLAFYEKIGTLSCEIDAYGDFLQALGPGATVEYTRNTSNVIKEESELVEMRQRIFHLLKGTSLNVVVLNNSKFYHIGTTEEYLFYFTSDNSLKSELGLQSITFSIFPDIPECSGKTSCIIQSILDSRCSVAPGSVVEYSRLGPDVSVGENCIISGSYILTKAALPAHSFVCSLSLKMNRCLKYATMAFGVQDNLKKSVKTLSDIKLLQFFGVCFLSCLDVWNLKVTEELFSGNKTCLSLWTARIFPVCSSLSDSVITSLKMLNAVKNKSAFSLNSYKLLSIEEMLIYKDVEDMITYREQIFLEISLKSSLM
UniProt P04406: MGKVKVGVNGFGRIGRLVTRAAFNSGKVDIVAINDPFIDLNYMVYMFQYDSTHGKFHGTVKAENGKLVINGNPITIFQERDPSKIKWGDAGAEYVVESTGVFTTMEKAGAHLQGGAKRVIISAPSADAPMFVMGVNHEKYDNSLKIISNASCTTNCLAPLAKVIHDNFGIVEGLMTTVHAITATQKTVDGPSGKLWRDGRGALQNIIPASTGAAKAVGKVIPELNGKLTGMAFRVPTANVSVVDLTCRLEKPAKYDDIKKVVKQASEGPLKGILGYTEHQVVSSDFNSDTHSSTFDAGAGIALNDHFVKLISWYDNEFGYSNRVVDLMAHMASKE
UniProt Q06210: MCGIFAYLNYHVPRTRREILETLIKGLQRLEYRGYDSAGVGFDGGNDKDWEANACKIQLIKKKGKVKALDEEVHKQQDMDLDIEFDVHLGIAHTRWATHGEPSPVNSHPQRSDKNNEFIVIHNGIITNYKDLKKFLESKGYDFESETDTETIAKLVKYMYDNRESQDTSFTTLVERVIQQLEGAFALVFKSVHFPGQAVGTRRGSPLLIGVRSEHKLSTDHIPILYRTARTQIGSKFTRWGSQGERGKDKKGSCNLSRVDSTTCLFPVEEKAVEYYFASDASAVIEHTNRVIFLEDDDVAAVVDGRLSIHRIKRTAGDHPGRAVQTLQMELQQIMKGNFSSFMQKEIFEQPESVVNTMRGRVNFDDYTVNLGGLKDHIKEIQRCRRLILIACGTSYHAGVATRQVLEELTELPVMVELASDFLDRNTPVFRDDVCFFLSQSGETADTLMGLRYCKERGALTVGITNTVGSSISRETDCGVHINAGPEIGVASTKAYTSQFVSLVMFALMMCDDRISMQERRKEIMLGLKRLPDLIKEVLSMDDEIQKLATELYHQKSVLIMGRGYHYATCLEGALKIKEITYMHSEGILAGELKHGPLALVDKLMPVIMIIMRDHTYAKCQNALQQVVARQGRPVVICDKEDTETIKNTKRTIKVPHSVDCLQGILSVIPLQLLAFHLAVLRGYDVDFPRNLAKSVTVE

Compound in this experiment: CC1=CC=C(C=C1)SC2=C3C=C(SC3=CN=C2)C(=O)N
Nature of the experiment: log2 fold change, soluble protein after heating vs DMSO (PISA); higher = thermal stabilisation; K562 lysate, 10 uM; active = over 0.2 and 3.5 SD of the protein, either way, in both replicates (recomputed). The procedure, abridged:
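Values give the log-two fold change in thermal stability against solvent controls, from duplicates. Crude K562 extract at 1 mg/mL protein, made by dounce homogenisation in PBS pH 7.4 with 1 mM MgCl2, was treated with 10 μM compound for 30 min. After 3 min heating across 48°C-58°C, aliquots were pooled, adjusted to 0.5% NP-40 at 4°C and centrifuged at 21,000xg for 90 min. The supernatant was measured by TMTpro 16plex LC-MS/MS with channel sums equalised.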
Take FTSJ1 (UniProt Q9UET6): the log2 fold change was inactive: 0.03. Next, GCC2 (UniProt Q8IWJ2): inactive: -0.008; GALNT7 (UniProt Q86SF2): inactive: 0.002; GEMIN2 (UniProt O14893): inactive: 0.026. As for GANAB isoform 2 (UniProt Q14697), the figure is inactive: 0.006. Next, GALNT5 (UniProt Q7Z7M9): inactive: -0.015; GALNT2 (UniProt Q10471): inactive: -0.016. In the case of G3BP2 (UniProt Q9UN86), the log2 fold change is inactive: 0.008.

With GBA (UniProt P04062), the log2 fold change is inactive: -0.105. For FUCA1 (UniProt P04066), the log2 fold change was inactive: -0.035.

Turning to GATAD2B (UniProt Q8WXI9), the log2 fold change is inactive: 0.001. As for FREM2 (UniProt Q5SZK8), the figure is inactive: -0.073; as for FRRS1 (UniProt Q6ZNA5), inactive: -0.056; as for GCC1 (UniProt Q96CN9), inactive: -0.031. Next, FXN (UniProt Q16595): inactive: 0.071; GABPB1 (UniProt Q06547): inactive: 0.024. Consider FPGT (UniProt O14772), for which the log2 fold change is inactive: -0.033. Next, GALM (UniProt Q96C23): inactive: 0.034; GALNT1 (UniProt Q10472): inactive: 0.011; GAPDH (UniProt P04406): inactive: 0.009.

Regarding GFER (UniProt P55789), the log2 fold change is inactive: 0.029. As for GFPT1 (UniProt Q06210), the figure is inactive: 0.01; as for GART (UniProt P22102), inactive: 0.021. Next, GALNT12 (UniProt Q8IXK2): inactive: 0.016.

The values are drawn from the supplement of paper PMC10849652.
